Source: ChEMBL document CHEMBL3988442, “University of Dundee, Small-Polar-MMV Screening Library” (2021).

Sequences of proteins named here, by UniProt entry; tags and fusion partners are left off.
UniProt E9BF75, entry or part of it: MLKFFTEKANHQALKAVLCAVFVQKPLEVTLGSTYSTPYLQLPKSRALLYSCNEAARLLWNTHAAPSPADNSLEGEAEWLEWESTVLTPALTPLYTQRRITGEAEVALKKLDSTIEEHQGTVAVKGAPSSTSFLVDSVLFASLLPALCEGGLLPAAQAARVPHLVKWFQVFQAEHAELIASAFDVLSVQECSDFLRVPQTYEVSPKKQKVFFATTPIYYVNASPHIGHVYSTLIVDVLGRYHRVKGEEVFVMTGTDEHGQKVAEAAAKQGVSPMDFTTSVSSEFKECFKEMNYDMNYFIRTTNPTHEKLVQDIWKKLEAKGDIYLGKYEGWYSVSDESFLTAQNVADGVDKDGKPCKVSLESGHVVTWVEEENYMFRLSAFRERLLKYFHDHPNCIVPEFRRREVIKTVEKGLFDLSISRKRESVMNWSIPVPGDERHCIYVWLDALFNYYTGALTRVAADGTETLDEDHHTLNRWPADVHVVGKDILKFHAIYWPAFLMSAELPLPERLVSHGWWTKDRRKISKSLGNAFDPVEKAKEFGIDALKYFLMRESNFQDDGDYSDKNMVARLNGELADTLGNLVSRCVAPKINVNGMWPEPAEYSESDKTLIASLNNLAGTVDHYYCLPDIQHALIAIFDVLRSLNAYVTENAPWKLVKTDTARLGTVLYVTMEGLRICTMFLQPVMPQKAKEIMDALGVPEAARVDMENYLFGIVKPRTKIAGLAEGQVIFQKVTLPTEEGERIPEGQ

Results are percentages, as filed. The record does not define 0% and 100%; most values in the screen are far below 50% and negative numbers occur (in some assays of this library far below -100). The compounds are a random part of those screened.

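Methionyl-tRNA synthetase (putative), Leishmania donovani (UniProt E9BF75). Primary screen of methionyl-tRNA synthetase; the read-out is not stated. The test concentration is not given. Values are per cent inhibition. Of about 68,000 compounds tested this way, about 24 (0.035%) reached 50% or more in at least one test.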

{"structure": "CCOCc1nc(N2CCCC2)sc1C(=O)NCCC(=O)OCC", "inhibition": 6.843}
{"structure": "CCc1nnc(CN(C)Cc2cccc(C(=O)Nc3nccs3)c2)o1", "inhibition": 11.02}
{"structure": "c1csc(CCNc2nc(-c3ccncc3)nc3c2CCNCC3)c1", "inhibition": 12.71}
{"structure": "CCC1CN(C(=O)c2ncccc2O)CCC(=O)N1Cc1ccccc1", "stereo": "stereo not drawn", "inhibition": 16.31}
{"structure": "CCC(=O)N1CCN(C(=O)Nc2cccc(C#N)c2)[C@H]2CS(=O)(=O)C[C@H]21", "inhibition": 10.63}
{"structure": "Cc1cccc(CNC(=O)CC2CCN(C(=O)C(C)C)CC2)n1", "inhibition": 4.127}
{"structure": "Cc1ccc(OCCCC(=O)Nc2nonc2C)cc1C", "inhibition": 11.67}
{"structure": "Cc1nn(C)c(Cl)c1C1CCCN1CC(=O)NC1CCCCC1", "stereo": "stereo not drawn", "inhibition": 12.01}
{"structure": "C[C@@H]1CCC[C@H](C)N1CC(=O)N1CCc2[nH]c(-c3ccccc3)nc2C1", "inhibition": 16.25}
{"structure": "CCCn1ncc(C(=O)N2CCN(C3CCCC3)CC2)c1C", "inhibition": 2.74}
{"structure": "CC(=O)Nc1nc(C2CCN(CC(N)=O)CC2)cs1", "inhibition": 7.192}
{"structure": "Cc1nc(C)n(C2CCCN(C(=O)c3cc4ccccc4n3C)C2)n1", "stereo": "stereo not drawn", "inhibition": 20.14}
{"structure": "CS(=O)(=O)N1C[C@@H]2CCN(C(=O)c3cscn3)[C@@H]2C1", "inhibition": 16.94}
{"structure": "CC(C)(C)c1cnc(CN2CCC(NC(=O)C3CCOCC3)CC2)o1", "inhibition": 0.7371}
{"structure": "COCC(O)CNC(=O)c1coc(COc2cccc(F)c2)n1", "stereo": "stereo not drawn", "inhibition": 7.216}
{"structure": "O=C(O)C1(O)CCN(c2ccnc3c(C(F)(F)F)cccc23)CC1", "inhibition": 10.99}
{"structure": "Brc1cc2c(cc1CN1CCC(N3CCCCC3)CC1)OCCO2", "inhibition": 17.7}
{"structure": "Cc1nccc(NCc2cncc3c2CCN(S(C)(=O)=O)C3)n1", "inhibition": 16.02}
{"structure": "COc1cc(CO)ccc1OCc1nc(C2CC2)no1", "inhibition": 23.12}
{"structure": "O=C(Cc1cccc(F)c1F)NS(=O)(=O)c1ccc(Cl)cc1F", "inhibition": -0.5495}
{"structure": "Cc1cccc(C2(O)CCN(C(=O)c3ccc(N(C)C)cc3)CC2)c1C", "inhibition": 1.045}
{"structure": "C=C(C)COc1ccccc1NC(=O)N1CCOCC1CO", "stereo": "stereo not drawn", "inhibition": 8.935}
{"structure": "O=C(Cc1csc(-c2ccco2)n1)N1CCSCC1", "inhibition": 24.36}
{"structure": "Cc1cc(N(C)Cc2noc(C)n2)n2nc(C)c(C)c2n1", "inhibition": 19.47}
{"structure": "CCNC(=O)c1cn2cc(-c3ccccc3Cl)n(CC3CC3)c(=O)c2n1", "inhibition": 1.535}
{"structure": "CC1CC(=O)c2cc(C(=O)N3CCOCC3)c(=O)[nH]c2C1", "stereo": "stereo not drawn", "inhibition": 14.73}
{"structure": "CN1C(=O)CO[C@H](c2ccc(NC(=O)c3cccc(F)c3)cc2)[C@H]1CO", "inhibition": 8.475}
{"structure": "CC(C(=O)N1CCn2cncc2C1)N1CCCC1", "stereo": "stereo not drawn", "inhibition": 15.78}
{"structure": "Cc1ccc(S(=O)(=O)Nc2ccc(C)c(C(=O)O)c2)s1", "inhibition": 3.249}
{"structure": "CCC(NC(=O)Nc1ccc(OC)c(C)c1)c1noc(C)n1", "stereo": "stereo not drawn", "inhibition": 10.99}
{"structure": "Cc1cc2c(=O)n3c(nc2s1)CCN(C(=O)c1cnn(C)c1C)CC3", "inhibition": 14.73}
{"structure": "CC(NC(=O)CN(C)S(C)(=O)=O)c1nnc2n1CCCCC2", "stereo": "stereo not drawn", "inhibition": -6.62}
{"structure": "CCCc1nc(C)c(C(=O)NCCNc2ncccc2C#N)s1", "inhibition": 20.55}
{"structure": "CCN(CC)S(=O)(=O)N1CCCC(c2cccc(C(=O)O)c2)C1", "stereo": "stereo not drawn", "inhibition": 14.13}
{"structure": "CCC(NCc1ccccc1)c1ccccc1OCC(=O)NC", "stereo": "stereo not drawn", "inhibition": 8.078}
{"structure": "CCN1CC2(CCN(C(=O)C(C)Oc3ccc(F)cc3F)CC2)OC1=O", "stereo": "stereo not drawn", "inhibition": 9.059}
{"structure": "COCC(=O)N1CC2=CC(C)(C)COc3ccc(OC)c(c32)C1", "inhibition": 4.11}
{"structure": "CN(C)c1ccc(C(O)CNC(=O)NCCCc2ccccc2)cc1", "stereo": "stereo not drawn", "inhibition": 17.75}
{"structure": "CCS(=O)(=O)N1CC[C@@H]2[C@@H](CCC(=O)N2CCc2ccccc2)C1", "inhibition": 13.97}
{"structure": "Cc1ccc(C(=O)NCCCN2CCOCC2)c(Cl)c1", "inhibition": 11.81}
{"structure": "c1csc(CN2CCC3(CCCN(c4nncs4)C3)C2)n1", "stereo": "stereo not drawn", "inhibition": 7.904}
{"structure": "O=C(COc1ccc2c(c1)CCC2)NCc1ccco1", "inhibition": -2.764}
{"structure": "CC(C)Nc1nc2c(cc1C(=O)O)CCN(Cc1ccsc1)CC2", "inhibition": 16.71}
{"structure": "O=C(CCN1CCCO1)N1CC[C@@H](c2ccc3ccccc3c2)[C@H](O)C1", "inhibition": 8.219}

For reference, 3 entries once more:

structure,inhibition
Cc1nccc(NCc2cncc3c2CCN(S(C)(=O)=O)C3)n1,16.02
Cc1nc(C)n(C2CCCN(C(=O)c3cc4ccccc4n3C)C2)n1 (stereo not drawn),20.14
CCCn1ncc(C(=O)N2CCN(C3CCCC3)CC2)c1C,2.74